From PMC9355226 come the findings set out here.

Chains of the proteins cited; added tags and fusions are not shown.
UniProt Q96CV9: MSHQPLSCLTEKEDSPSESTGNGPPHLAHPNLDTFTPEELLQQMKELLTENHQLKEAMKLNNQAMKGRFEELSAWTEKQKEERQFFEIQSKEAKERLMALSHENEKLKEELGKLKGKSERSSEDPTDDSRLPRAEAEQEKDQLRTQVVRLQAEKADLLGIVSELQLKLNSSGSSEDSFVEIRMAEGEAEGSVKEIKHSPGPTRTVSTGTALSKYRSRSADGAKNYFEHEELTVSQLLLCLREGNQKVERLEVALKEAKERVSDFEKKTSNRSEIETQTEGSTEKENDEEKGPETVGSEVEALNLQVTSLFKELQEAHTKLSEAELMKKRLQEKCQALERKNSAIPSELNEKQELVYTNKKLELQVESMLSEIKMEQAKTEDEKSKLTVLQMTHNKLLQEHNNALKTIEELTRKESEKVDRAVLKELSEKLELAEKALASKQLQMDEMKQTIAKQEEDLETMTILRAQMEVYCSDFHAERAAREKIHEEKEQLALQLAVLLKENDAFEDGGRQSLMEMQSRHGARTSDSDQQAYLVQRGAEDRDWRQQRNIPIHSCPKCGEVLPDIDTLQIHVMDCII

No constants are given. Whether binding was seen depends on the method and setting. Some binding calls cover weakened binding; strength is not graded here.

The target in this test is CFP-TRIM32 (human) (UniProt Q13049). As to the kind of experiment: sorting of fluorescent cytoplasmic bodies with a cell sorter, then LC-MS/MS; HEK293 cells transfected with CFP-TRIM32, lysed in buffer with 1% Triton X-100 and 150 mM NaCl, sonicated; particles sorted by CFP, FSC and BSC gates (larger than 1.5 um); 10,000 particles solubilised, digested with trypsin, LC-MS/MS; control: naive HEK293 cells; hits with ratio >2 over the control.
With OPTN (from UniProt Q96CV9 1-577), the binding entry is given as “no binding”.
p62 (from UniProt Q13501 1-440): the binding result is on record as “no binding”.
desmin (from UniProt P17661 1-470): the binding entry is listed as “binds”.
